System: abdominal aortic aneurysm
Test: Regression of established abdominal aortic aneurysm, administration from Day 7 (Example 3)
Assay type: in vivo, rat
Experimental: SD-male rats of 4 weeks old (70 to 90 G) were used. The rats were subjected to the above-described abdominal aortic aneurysm induction treatment. On Day 7, the abdomen of the rat was opened to confirm the occurrence of an abdominal aortic aneurysm, the vessel diameter was measured, and then the abdomen was closed. Subsequently, a control group was fed normal feed and water, while a tricaprin administration group was fed tricaprin in an amount of 1,145 MG/KG/day in addition to the normal feed.
Seven days after the abdominal closure (Day 14 after the abdominal aortic aneurysm induction treatment), the abdomen was opened again, and the blood vessel diameter was measured. Some rats of the control group were not subjected to laparotomy on Day 14 and continued to be fed normal feed and water. The amount of the neutral fats in the blood vessel, the amount of lipids in the blood, the blood glucose level, and the body weight were measured from the day when the abdominal aortic aneurysm induction treatment was performed.
FIGS. 3(A), 3(B), and 3(C) show the control group (depicted as “CONTROL”), and FIGS. 3(D), 3(E), and 3(F) show the tricaprin administration group (depicted as “C10-TG”).
Photographs under “DAY 0” are photographs taken when the abdominal aortic aneurysm induction treatment was performed (FIG. 3(A) and FIG. 3(D)). Photographs under “DAY 7” are photographs taken at the time of laparotomy performed 7 days after the abdominal aortic aneurysm induction treatment (FIG. 3(B) and FIG. 3(E)). […] Until this time point, tricaprin had not been administered yet to the rats of the tricaprin administration group.

CCCCCCCCCC(=O)OCC(COC(=O)CCCCCCCCC)OC(=O)CCCCCCCCC [Tricaprin, tricaprin]
no difference: Blood glucose level versus control group | Cholesterol level versus control group | Neutral fats in blood versus control group

Reference: patent US20260207537A1, “PHARMACEUTICAL COMPOSITION FOR PREVENTION AND TREATMENT OF AORTIC ANEURYSM, AND PROCESSED FOOD” (priority 2020, published 2026)
